{"source": "PubChem BioAssay AID1259424 (University of Nebraska Medical Center, 2018)", "screen": "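Rank knockdowns across the genome by resemblance to the KSR1 depletion profile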 (primary screen)", "system": "human HCT116 colon cancer cells", "reagent": "siRNA pool against human genes, 50 nM", "measured": "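Six signature mRNAs by branched-DNA multiplex assay, scaled to two housekeeping genes and non-targeting median, log2; matched to mean KSR1 knockdown profile by Pearson correlation and euclidean distance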", "reading the numbers": "mean correlation with KSR1 profile: higher = expression change more like KSR1 knockdown", "note": "This is a random part of about 14,000 reagents. 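Higher correlation or smaller distance means closer resemblance to KSR1 loss; control wells, including KSR1 knockdowns, recur on many plates.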 Not all columns of the deposit are shown. Reagent sequences are not shown. Not given: the time to read-out."}
The first 2 records, to show the layout:
{"target":"GAPVD1 (GeneID 26130)","mean correlation with KSR1 profile":-0.454}
{"target":"PCNX4 (GeneID 64430)","mean correlation with KSR1 profile":-0.531}

The listing, repeating the preview:
{"target":"GAPVD1 (GeneID 26130)","mean correlation with KSR1 profile":-0.454}
{"target":"PCNX4 (GeneID 64430)","mean correlation with KSR1 profile":-0.531}
{"target":"DANCR (GeneID 57291)","mean correlation with KSR1 profile":-0.678}
{"target":"CAPN15 (GeneID 6650)","mean correlation with KSR1 profile":0.0889}
{"target":"TOP2B (GeneID 7155)","mean correlation with KSR1 profile":0.145}
{"target":"CDADC1 (GeneID 81602)","mean correlation with KSR1 profile":0.0456}
{"target":"JAKMIP2 (GeneID 9832)","mean correlation with KSR1 profile":0.134}
{"target":"MEX3C (GeneID 51320)","mean correlation with KSR1 profile":0.0808}
{"target":"OR5P3 (GeneID 120066)","mean correlation with KSR1 profile":0.944}
{"target":"RNF5 (GeneID 6048)","mean correlation with KSR1 profile":-0.303}
{"target":"FCER1A (GeneID 2205)","mean correlation with KSR1 profile":-0.288}
{"target":"ECRG4 (GeneID 84417)","mean correlation with KSR1 profile":0.557}
